Assay results published in patent US11879893B2, “Rapid detection test for SARS-CoV-2” (priority 2020, dated 2024).
At least one compound was matched to its structure with a doubt left. Numbered stars: 1 amine (or outer) side, 2 acyl side, 3 side chain; on linkers, the order of the positions; unused ones are H or OH. Peptide text beside a SMILES is read from it. CO = O=C([*:1])[*:2]

Legend:
3CL Protease = target: T1, 3CL Protease (Severe acute respiratory syndrome coronavirus 2, UniProt P0DTC1); type: biochemical, SARS-CoV-2
T1 construct: 6xHIS-tag (N); TEV-protease cleavage site (ENLYFQG) (N); made in house
Method: (§1) The purpose of adding protease inhibitors to the buffer is to reduce nonspecific saliva activity and increase signal to noise ratio. 29 inhibitors were tested using a competitive enzymatic activity assay of 3CL Protease in saliva samples.

[1] = test system: non-specific protease activity in saliva; assay: Inhibitor test in saliva samples: non-specific protease activity; type: biochemical
Method: as §1

CC(C)[C@H](NC(=O)[C@H](CCCNC(=N)N)NC(=O)N[C@@H](Cc1ccccc1)C(=O)O)C(=O)N[C@H](C=O)CCCNC(=N)N [Antipain] ({Phe-CO}-Arg-Val-Arg-aldehyde)
inhibition of 3CL specific activity (3CL Protease): non significant inhibition
non-specific protease activity in saliva [1]: decreased
